Data as given in article PMC12622436.
No constants are given. Whether binding was seen depends on the method and setting. For part of these data: Binding seen in cells or lysates may run through a third protein. Some results given as binding are weak or reduced against the parent protein; the word gives no strength. For part of these data: Sequences can lack the tags named with a protein.

Key:
[1] = target: T1, Clathrin light chain B (human (endogenous in HUVECs)) (UniProt P09497); assay: co-IP; HUVEC NP-40 lysate (500 ug) with 2 ug anti-CLTB or rabbit IgG, overnight 4 C; Protein A/G magnetic beads; blot
T1 sequence: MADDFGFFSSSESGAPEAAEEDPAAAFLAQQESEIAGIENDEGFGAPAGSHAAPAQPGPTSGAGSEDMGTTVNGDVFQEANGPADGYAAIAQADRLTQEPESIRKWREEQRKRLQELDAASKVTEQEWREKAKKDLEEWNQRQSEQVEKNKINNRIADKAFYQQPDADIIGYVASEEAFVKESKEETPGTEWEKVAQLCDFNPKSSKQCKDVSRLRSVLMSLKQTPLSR

[2] = target: CBL (human (endogenous in HUVECs)) (UniProt P22681); assay: co-IP; HUVEC NP-40 lysate (500 ug) with 2 ug anti-CBL or rabbit IgG, overnight 4 C; Protein A/G magnetic beads; blot; cells untreated or treated with PBS, CLTB-NC-sEVs or CLTB-OE-sEVs
[3] = target: T2, Clathrin light chain B, tagged fusion protein for GST pull-down (UniProt P09497); assay: pull-down; 0.5 mg each of His-tagged and GST-tagged fusion proteins combined, 3 h on ice; Glutathione Sepharose 4B; five washes; eluted with 15 mM reduced glutathione; blot with anti-His; both purified
T2 sequence: T1 sequence

Row | binding [1] | binding [2] | binding [3] | Substance
1 | binds | binds |  | SH3 domain-containing kinase-binding protein 1 (from UniProt Q96B97 1-665)
2 |  |  | binds | SH3 domain-containing kinase-binding protein 1, tagged fusion protein for GST pull-down (from UniProt Q96B97 1-665)
